US20120266268A1 (WASHINGTON STATE UNIVERSITY, published 2012)

B1: Arabidopsis thaliana ESC (ESCAROLA) protein (other)
chain: MEGGYEQGGGASRYFHNLFRPEIHHQQLQPQGGINLIDQHHHQHQQHQQQQQPSDDSRESDHSNKDHHQQGRPDSDPNTSSSAPGKRPRGRPPGSKNKAKPPIIVTRDSPNALRSHVLEVSPGADIVESVSTYARRRGRGVSVLGGNGTVSNVTLRQPVTPGNGGGVSGGGGVVTLHGRFEILSLTGTVLPPPAPPGAGGLSIFLAGGQGQVVGGSVVAPLIASAPVILMAASFSNAVFERLPIEEEEEEGGGGGGGGGGGPPQMQQAPSASPPSGVTGQGQLGGNVGGYGFSGDPHLLGWGAGTPSRPPF
notes: Tested as fusions: lexA bait or pACT2 prey in Y2H, and N- or C-terminal EYFP half in BiFC; also called AHL27; ESC/AHL27
B2: Arabidopsis thaliana SOB3 (SUPPRESSOR OF PHYTOCHROME B-4 #3) protein (other)
chain: MDGGYDQSGGASRYFHNLFRPELHHQLQPQPQLHPLPQPQPQPQPQQQNSDDESDSNKDPGSDPVTSGSTGKRPRGRPPGSKNKPKPPVIVTRDSPNVLRSHVLEVSSGADIVESVTTYARRRGRGVSILSGNGTVANVSLRQPATTAAHGANGGTGGVVALHGRFEILSLTGTVLPPPAPPGSGGLSIFLSGVQGQVIGGNVVAPLVASGPVILMAASFSNATFERLPLEDEGGEGGEGGEVGEGGGGEGGPPPATSSSPPSGAGQGQLRGNMSGYDQFAGDPHLLGWGAAAAAAPPRPAF
notes: Tested as fusions, not as free protein; In Y2H it was a lexA bait (pBTM116-D9) or a pACT2 prey; In BiFC it was fused to n(1-174)EYFP or c(175-end)EYFP and expressed in onion epidermal cells; also called AHL29; SOB3/AHL29

Tests used:
[1] = target: the molecule itself; experiment: BiFC (split YFP), onion epidermal cells
Excerpt: (§1) Onion epidermal cells were transformed with the indicated plasmid combination. A monomeric red fluorescent protein (pSAT6-mRFP) was used with each combination as a positive control.
(§2) We further examined these interactions in planta using a transient Bimolecular Fluorescence Complementation (BiFC) Assay with onion epidermal cells biolistically transformed with Gateway® compatible vectors derived from pSAT4-DEST-n(1-174)EYFP-C1 and pSAT5-DEST-c(175-end)EYFP-C1(B) (Citovsky et al., 2006). The cDNAs for SOB3, ESC and HRC were cloned into each BiFC plasmid as in-frame translational fusions with either the N- or C-terminal half of a yellow fluorescent protein (YFP). Empty vectors were used as negative controls. Pairs of BiFC plasmids together with the pSAT6-mRFP plasmid encoding a red fluorescent protein (RFP) were co-bombarded into onion epidermal cells using a PDS-1000/He Biolistic transformation system (BIO-RAD). Reconstructed fluorescence was examined after 40 hours of incubation in the dark with a Zeiss LSM 510 META confocal microscope. The monomeric red fluorescence from the RFP was used to identify successful transformation into onion cells (FIG. 4). […] In the BIFC assay using negative controls (data not shown), yellow fluorescence could not be observed.

[2] = target: B1; experiment: BiFC (split YFP), onion epidermal cells
Excerpt: as §1, §2

[3] = target: B2; experiment: BiFC (split YFP), onion epidermal cells
Excerpt: as §1, §2

[4] = target: B1; experiment: yeast two-hybrid, lexA-based (pBTM116-D9 bait, pACT2 prey, strain L40ccU3)
Excerpt: (A) SOB3 was used as prey(pACT2) and ESC was used as bait (pBTM116). Five individual colonies were picked and re-plated on SDII (selection medium containing leucine and histidine) or SDIV (selection medium without leucine and histidine). Pictures were taken 3 days after plating. (B) SOB3 was used as bait and ESC was used as prey.
Protein-protein interaction studies. We first tested the hypothesis that SOB3 can associate with ESC using a yeast two-hybrid (Y2H) approach. For the Y2H assay, a lexA-based system was used consisting of pBTM116-D9 as a bait plasmid and pACT2 (Clontech, Palo Alto, Calif.) as a prey plasmid, together with the yeast reporter strain L40ccU3. Coding sequences of SOB3 and ESC proteins were recombined into both the bait and prey vectors via Gateway® reactions (Invitrogen, Carlsbad, Calif.).

| binding result [2] | binding result [3] | binding result [4] | Binder | binding result [1] |
| --- | --- | --- | --- | --- |
|  |  |  | B1 | binds |
| binds | binds |  | Arabidopsis thaliana HERCULES (HRC/AHL25) protein (other, Tested as EYFP-half fusions in BiFC; also called HRC1; AT4G35390) MSSYMHPLLGQELHLQRPEDSRTPPDQNNMELNRSEADEAKAETTPTGGATSSATASGSSSGRRPRGRPAGSKNKPKPPTIITRDSPNVLRSHVLEVTSGSDISEAVSTYATRRGCGVCIISGTGAVTNVTIRQPAAPAGGGVITLHGRFDILSLTGTALPPPAPPGAGGLTVYLAGGQGQVVGGNVAGSLIASGPVVLMAASFANAVYDRLPIEEEETPPPRTTGVQQQQPEASQSSEVTGSGAQACESNLQGGNGGGGVAFYNLGMNMNNFQFSGGDIYGMSGGSGGGGGGATRPAF | binds |
|  |  | binds | B2 | binds |
